Test results published in article PMC7378894.
Results are given in words; binding and its absence hold for the method and conditions named. Binding seen in cells or lysates may run through a third protein. Some entries that bind do so weakly or less than the wild type. For part of these data: Sequences can lack the tags named with a protein. Blank lines part the entries; values can stand above or below the binder they belong to.

By UniProt entry, the sequences of proteins in these tests, tags left out.
UniProt O75626: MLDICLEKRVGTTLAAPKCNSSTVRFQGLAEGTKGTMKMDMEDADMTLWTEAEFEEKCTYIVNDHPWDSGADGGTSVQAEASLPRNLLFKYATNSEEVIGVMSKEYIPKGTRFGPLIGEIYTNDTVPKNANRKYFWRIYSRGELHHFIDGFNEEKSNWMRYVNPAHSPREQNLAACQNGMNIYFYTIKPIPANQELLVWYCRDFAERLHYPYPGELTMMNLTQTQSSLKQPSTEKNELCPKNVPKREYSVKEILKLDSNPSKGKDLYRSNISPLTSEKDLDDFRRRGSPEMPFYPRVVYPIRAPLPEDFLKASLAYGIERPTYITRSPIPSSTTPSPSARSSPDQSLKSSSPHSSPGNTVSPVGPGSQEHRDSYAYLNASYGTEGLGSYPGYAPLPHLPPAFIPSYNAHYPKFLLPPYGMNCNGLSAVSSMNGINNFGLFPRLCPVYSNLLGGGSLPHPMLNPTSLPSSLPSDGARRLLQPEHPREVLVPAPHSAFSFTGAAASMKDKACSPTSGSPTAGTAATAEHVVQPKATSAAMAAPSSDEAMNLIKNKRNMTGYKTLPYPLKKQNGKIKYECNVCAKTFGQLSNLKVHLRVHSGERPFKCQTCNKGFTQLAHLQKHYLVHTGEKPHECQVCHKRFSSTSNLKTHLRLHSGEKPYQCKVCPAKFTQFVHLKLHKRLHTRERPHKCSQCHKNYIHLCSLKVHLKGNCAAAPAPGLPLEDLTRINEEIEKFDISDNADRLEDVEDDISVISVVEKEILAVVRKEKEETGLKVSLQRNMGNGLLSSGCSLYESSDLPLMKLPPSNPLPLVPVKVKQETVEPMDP

Columns and labels:
[1] = biological target: Positive regulatory domain 1 (PRDM1) in monocyte derived-dendritic cells (human (endogenous in MO-DCs)) (UniProt O75626); test: co-IP; nuclear fraction of MO-DCs incubated overnight at 4°C with anti-PRDM1 antibody or control IgG on protein G or A magnetic beads; immunoblot of the eluate
[2] = biological target: Positive regulatory domain 1 (PRDM1) in monocyte derived-dendritic cells (human (endogenous in MO-DCs)) (UniProt O75626); test: proximity ligation; in situ PLA (Duolink) on fixed, permeabilised primary MO-DCs, anti-PRDM1 or normal rabbit IgG with anti-TP53BP1, anti-hnRNPM or anti-NonO; unstimulated, and for NonO also after LPS for 6 h
[3] = biological target: Positive regulatory domain 1 (PRDM1) in human myeloma cell lines (human (endogenous in U-266 and RPMI-8226)) (UniProt O75626); test: proximity ligation; in situ PLA on U-266 myeloma cells, anti-NonO with anti-PRDM1 or control IgG
[4] = biological target: Positive regulatory domain 1 (PRDM1) in human myeloma cell lines (human (endogenous in U-266 and RPMI-8226)) (UniProt O75626); test: proximity ligation; in situ PLA on RPMI-8226 myeloma cells, anti-NonO with anti-PRDM1 or control IgG
[5] = biological target: Positive regulatory domain 1 (PRDM1), expressed from the Origene tagged ORF clone in HEK-293 cells (human) (UniProt O75626); test: proximity ligation; in situ PLA on transfected HEK-293 cells, PRDM1 antibody with Flag or V5 antibody; PRDM1 antibody alone as technical control
[6] = biological target: Positive regulatory domain 1 (PRDM1), expressed from the Origene tagged ORF clone in HEK-293 cells (human) (UniProt O75626); test: co-IP; nuclear extract of HEK-293 cells transiently transfected with PRDM1 and Flag-NonO, Flag-TP53BP1 or V5-hnRNPM; immunoprecipitated with anti-PRDM1 antibodies; anti-FLAG and anti-V5 immunoblot

binding [1]: binds
binding [2]: binds
B1: non-POU domain-containing octamer-binding protein (NonO) in monocyte derived-dendritic cells (protein, UniProt Q15233 1-471)
chain: MQSNKTFNLEKQNHTPRKHHQHHHQQQHHQQQQQQPPPPPIPANGQQASSQNEGLTIDLKNFRKPGEKTFTQRSRLFVGNLPPDITEEEMRKLFEKYGKAGEVFIHKDKGFGFIRLETRTLAEIAKVELDNMPLRGKQLRVRFACHSASLTVRNLPQYVSNELLEEAFSVFGQVERAVVIVDDRGRPSGKGIVEFSGKPAARKALDRCSEGSFLLTTFPRPVTVEPMDQLDDEEGLPEKLVIKNQQFHKEREQPPRFAQPGSFEYEYAMRWKALIEMEKQQQDQVDRNIKEAREKLEMEMEAARHEHQVMLMRQDLMRRQEELRRMEELHNQEVQKRKQLELRQEEERRRREEEMRRQQEEMMRRQQEGFKGTFPDAREQEIRMGQMAMGGAMGINNRGAMPPAPVPAGTPAPPGPATMMPDGTLGLTPPTTERFGQAATMEGIGAIGGTPPAFNRAAPGAEFAPNKRRRY

binding [3]: binds
binding [4]: binds
B2: non-POU domain-containing octamer-binding protein (NonO) in human myeloma cell lines (protein, UniProt Q15233 1-471)
chain: B1 chain

binding [5]: binds
binding [6]: binds
B3: Flag-NonO (non-POU domain-containing octamer-binding protein) (protein, UniProt Q15233 1-471)
chain: B1 chain
